Results are given in words; binding and its absence hold for the method and conditions named. For part of these data: In cells and extracts the contact can be indirect. Some binding calls cover weakened binding; strength is not graded here. Sequences can lack the tags named with a protein.
Columns and labels:
[1] = molecular target: T1, ABI5-Binding Protein 4 (AFP4), yeast two-hybrid fusions (Arabidopsis thaliana) (UniProt Q9S7Z2); experiment: two-hybrid
T1 sequence: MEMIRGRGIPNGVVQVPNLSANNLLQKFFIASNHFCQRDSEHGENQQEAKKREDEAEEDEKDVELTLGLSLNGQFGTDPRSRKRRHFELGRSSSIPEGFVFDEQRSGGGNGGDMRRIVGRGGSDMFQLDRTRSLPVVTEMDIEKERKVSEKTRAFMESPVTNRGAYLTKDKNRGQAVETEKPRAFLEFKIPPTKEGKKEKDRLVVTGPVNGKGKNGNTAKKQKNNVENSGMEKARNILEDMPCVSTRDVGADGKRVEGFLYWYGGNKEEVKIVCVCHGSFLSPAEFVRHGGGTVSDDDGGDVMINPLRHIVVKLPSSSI

[2] = molecular target: T2, ABI5-Binding Protein 2 (AFP2), yeast two-hybrid fusions (Arabidopsis thaliana) (UniProt Q9LMX5); experiment: two-hybrid
T2 sequence: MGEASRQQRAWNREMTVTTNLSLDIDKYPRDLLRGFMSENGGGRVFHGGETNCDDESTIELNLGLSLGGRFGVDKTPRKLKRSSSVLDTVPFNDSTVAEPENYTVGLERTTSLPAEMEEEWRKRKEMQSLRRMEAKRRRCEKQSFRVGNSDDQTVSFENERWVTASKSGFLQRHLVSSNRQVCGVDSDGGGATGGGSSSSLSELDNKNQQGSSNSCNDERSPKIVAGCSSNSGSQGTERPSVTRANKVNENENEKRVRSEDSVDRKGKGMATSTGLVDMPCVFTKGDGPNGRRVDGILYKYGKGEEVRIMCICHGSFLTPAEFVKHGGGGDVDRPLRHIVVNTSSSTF

[3] = molecular target: T3, ABI5-Binding Protein 1 (AFP1), yeast two-hybrid fusions (Arabidopsis thaliana) (UniProt Q9LQ98); experiment: two-hybrid
T3 sequence: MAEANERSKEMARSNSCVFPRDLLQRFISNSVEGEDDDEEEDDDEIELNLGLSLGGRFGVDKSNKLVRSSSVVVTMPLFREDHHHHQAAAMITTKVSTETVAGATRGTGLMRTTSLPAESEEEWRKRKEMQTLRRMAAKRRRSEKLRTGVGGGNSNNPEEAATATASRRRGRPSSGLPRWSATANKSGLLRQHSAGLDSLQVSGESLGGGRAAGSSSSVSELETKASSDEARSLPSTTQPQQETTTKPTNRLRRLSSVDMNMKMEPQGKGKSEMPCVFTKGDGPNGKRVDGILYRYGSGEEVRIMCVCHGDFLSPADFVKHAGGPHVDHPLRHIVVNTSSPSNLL

[4] = molecular target: T4, ABI5-Binding Protein 3 (AFP3), yeast two-hybrid fusions (Arabidopsis thaliana) (UniProt Q94F39); experiment: two-hybrid
T4 sequence: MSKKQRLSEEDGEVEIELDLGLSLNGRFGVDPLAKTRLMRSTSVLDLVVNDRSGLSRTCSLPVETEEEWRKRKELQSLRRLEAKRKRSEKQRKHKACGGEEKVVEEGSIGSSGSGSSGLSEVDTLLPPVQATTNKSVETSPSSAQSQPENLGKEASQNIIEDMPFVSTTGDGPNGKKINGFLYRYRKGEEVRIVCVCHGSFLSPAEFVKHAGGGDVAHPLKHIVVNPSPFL

[5] = molecular target: AHG1, split YFP fusion (Arabidopsis thaliana) (UniProt Q9FLI3); experiment: split reporter
[6] = molecular target: T5, GRF7 (14-3-3 nu), split YFP fusion (Arabidopsis thaliana) (UniProt Q96300); experiment: split reporter
T5 sequence: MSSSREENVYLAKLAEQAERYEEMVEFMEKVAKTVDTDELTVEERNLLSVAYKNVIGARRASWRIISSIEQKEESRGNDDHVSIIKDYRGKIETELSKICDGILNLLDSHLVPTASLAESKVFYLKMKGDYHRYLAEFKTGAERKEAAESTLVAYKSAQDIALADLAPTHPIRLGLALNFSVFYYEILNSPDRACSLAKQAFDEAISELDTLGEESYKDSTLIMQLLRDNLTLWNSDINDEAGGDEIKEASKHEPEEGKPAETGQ

[7] = molecular target: T6, GRF4 (14-3-3 phi), split YFP fusions (Arabidopsis thaliana) (UniProt P46077); experiment: split reporter
T6 sequence: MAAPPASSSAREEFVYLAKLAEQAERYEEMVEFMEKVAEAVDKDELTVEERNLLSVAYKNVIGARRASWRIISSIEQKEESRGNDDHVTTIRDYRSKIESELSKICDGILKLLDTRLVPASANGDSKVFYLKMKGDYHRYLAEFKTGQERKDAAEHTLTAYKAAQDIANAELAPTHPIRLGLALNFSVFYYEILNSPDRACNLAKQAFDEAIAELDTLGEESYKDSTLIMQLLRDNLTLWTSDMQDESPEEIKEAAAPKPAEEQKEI

[8] = molecular target: T7, SnRK2.6, split YFP fusion (Arabidopsis thaliana) (UniProt Q940H6); experiment: split reporter
T7 sequence: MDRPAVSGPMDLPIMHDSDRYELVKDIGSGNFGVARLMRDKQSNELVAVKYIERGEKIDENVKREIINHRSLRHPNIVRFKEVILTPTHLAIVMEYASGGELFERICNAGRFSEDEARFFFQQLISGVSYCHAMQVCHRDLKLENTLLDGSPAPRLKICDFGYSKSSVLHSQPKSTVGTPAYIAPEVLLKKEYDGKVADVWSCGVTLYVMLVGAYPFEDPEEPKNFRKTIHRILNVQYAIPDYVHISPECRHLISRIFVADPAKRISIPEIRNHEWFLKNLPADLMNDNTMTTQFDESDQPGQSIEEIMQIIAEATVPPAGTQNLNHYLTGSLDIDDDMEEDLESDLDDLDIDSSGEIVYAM

[9] = molecular target: T8, GRF3 (14-3-3 psi), split YFP fusion (Arabidopsis thaliana) (UniProt P42644); experiment: split reporter
T8 sequence: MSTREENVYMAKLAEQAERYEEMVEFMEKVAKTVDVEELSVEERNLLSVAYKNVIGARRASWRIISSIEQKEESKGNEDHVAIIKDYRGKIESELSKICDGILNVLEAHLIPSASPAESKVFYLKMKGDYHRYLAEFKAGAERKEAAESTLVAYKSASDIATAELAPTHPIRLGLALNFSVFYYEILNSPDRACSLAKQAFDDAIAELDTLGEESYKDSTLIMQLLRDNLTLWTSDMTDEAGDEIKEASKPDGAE

| Binder | binding [1] | binding [2] | binding [3] | binding [4] | binding [5] | binding [6] | binding [7] | binding [8] | binding [9] |
| --- | --- | --- | --- | --- | --- | --- | --- | --- | --- |
| ABA-… …ON 1 (AHG1), AD fusion (enzyme, UniProt Q9FLI3 1-416) MTEIYRTISTGRGDDVSPTKCRERRRRRIEMRRQAAVFGEPSSSRNRDRTDMEVYSSFDVPLRKQARRSEIGGLPADIGGFLAPPAASSCQKSEAPVWKGEETEDEPLYGIVSVMGRSRKMEDSVTVKPNLCKPEVNRQRPVHFFAVYDGHGGSQVSTLCSTTMHTFVKEELEQNLEEEEEGSENDVVERKWRGVMKRSFKRMDEMATSTCVCGTSVPLCNCDPREAAISGSTAVTAVLTHDHIIVANTGDSRAVLCRNGMAIPLSNDHKPDRPDERARIEAAGGRVLVVDGARVEGILATSRAIGDRYLKPMVAWEPEVTFMRRESGDECLVLASDGLWDVLSSQLACDIARFCLREETPSSLDLNRMAQEDDNDGEQNPSRSVLAATLLTRLALGRQSSDNISVVVIDLKNSSQ | binds | binds | binds | binds |  |  |  |  |  |
| GRF4 (14-3-3 phi), split YFP fusions (protein, UniProt P46077 1-267) MAAPPASSSAREEFVYLAKLAEQAERYEEMVEFMEKVAEAVDKDELTVEERNLLSVAYKNVIGARRASWRIISSIEQKEESRGNDDHVTTIRDYRSKIESELSKICDGILKLLDTRLVPASANGDSKVFYLKMKGDYHRYLAEFKTGQERKDAAEHTLTAYKAAQDIANAELAPTHPIRLGLALNFSVFYYEILNSPDRACNLAKQAFDEAIAELDTLGEESYKDSTLIMQLLRDNLTLWTSDMQDESPEEIKEAAAPKPAEEQKEI |  |  |  |  | binds weakly | binds | binds | binds | binds |

— doi:10.1101/2024.10.11.617944
